Patent publication US20080058284A1, “Pharmaceutical compositions of semicarbazones and/or thiosemicarbazones and/or their derivatives and products of these compositions and their uses as anticonvulsant, anti-nociceptive and anti-inflammatory agents, and in the angiogenic therapy” (UNIVERSIDALE FEDERAL DE MINAS GERAIS, priority 2002, published 2008)
Some entries share one result that the patent states for a list of compounds.

Tested on: angiogenesis induced by sponge implant in Swiss mice
Test: Angiogenesis induced by sponge implant, hemoglobin content (vascular index)
Assay type: in vivo
Details: dose not stated
Method: The experiments were performed in male, Swiss mice (20-30 g; 12 weeks old) from the Animal House of the Institute of Biological Sciences, Federal University of Minas Gerais. Polyether-polyurethane sponge discs 5 mm thickness and 10 mm diameter with central cannula, used as a framework to induce fibrovascular tissue growth, were introduced through a skin incision in the back of mice anesthetized with 2,2,2-tribromoethanol ([…]) [Machado, R. D. P., Santos, R. A. S., Andrade, S. P., Life Sciences 66, 67, 2000]. The animals were housed individually and provided with normal food and water. Housing and anesthesia concurred with the guidelines established by our local Institutional Animal Welfare Committee.
Four more doses were given in the subsequent days. The animals were killed by cervical dislocation 9 days after implantation. The implants were removed and processed for hemoglobin determination (vascular index) using a modified Drabkin's method [Plunkett, M. L., Haley, J. A., Lab. Invest. […] One group of animals received injection of vehicle.

Q: NC(=O)NN=Cc1ccccc1 [BS, benzaldehyde semicarbazone] was tested. Which “inhibition of hemoglobin content (vascular index), summary statement” value did it give?
A: more than 50%
